The supplement of paper PMC8426693
This is one part of the list.

Experiments:
Assay in all cases: NMR binding call after quantification (hit when 2 of 3 NMR criteria are met) (binary (1 = binding, 0 = not binding)); higher = binding
Settings in all cases: RNA concentration 10 µM; fragment concentration 200 µM; 293 K
[1] = tested on: SARS-CoV-2 5'-UTR RNA
[2] = tested on: SARS-CoV-2 5_SL1 RNA
[3] = tested on: SARS-CoV-2 5_SL1234 RNA
[4] = tested on: SARS-CoV-2 5_SL4 RNA
[5] = tested on: SARS-CoV-2 5_SL5 RNA
[6] = tested on: SARS-CoV-2 5_SL5a RNA
[7] = tested on: SARS-CoV-2 5_SL5b+c RNA
[8] = tested on: SARS-CoV-2 5_SL5stem RNA
[9] = tested on: SARS-CoV-2 5_SL6 RNA
[10] = tested on: SARS-CoV-2 5_SL2+3 RNA

Measured: NMR binding call

NC(=O)C1CCCn2ccnc21 (configuration not stated)
0: [1] | [2] | [3] | [4] | [5] | [6] | [7] | [8] | [9]

CN1CCN(C(=O)CO)CC1
0: [1] | [2] | [10] | [4] | [5] | [6] | [7] | [8] | [9]

O=C(NCCc1ccncc1)NC1CCCCC1
0: [1] | [2] | [3] | [4] | [7]

OCc1cn(-c2ccc(Cl)c(Cl)c2)nn1
0: [6]
1: [1] | [2] | [3] | [4] | [5] | [7] | [8] | [9]

NC(=O)c1ccc(NC(=O)c2cnccn2)cc1
0: [1] | [2] | [10] | [7]

Oc1ccc(CN2CCc3ccccc3C2)cc1
0: [2] | [3] | [10] | [4] | [5] | [6] | [7] | [8] | [9]

O=C(Nc1ccon1)c1cccc(Cl)c1
1: [1] | [5] | [8]
0: [2] | [10] | [7]

COc1ccc2[nH]cc(CN(C)C)c2c1
1: [1]
0: [2] | [10] | [7]

CCc1nc(-c2ccc(Cl)cc2)no1
0: [1] | [3] | [10] | [4] | [5] | [6] | [7] | [8] | [9]

NC(=O)CN1CCN(C(=O)c2ccco2)CC1
0: [2] | [3] | [10] | [4] | [5] | [6] | [7] | [8] | [9]

Cc1occc1C(=O)Nc1ccncc1
1: [1] | [2] | [5] | [8]
0: [7]

COc1ccc(Nc2ncnc3[nH]cnc23)cc1
1: [1] | [5]
0: [2] | [10] | [7]

Four structures from above, ordered by molecular weight, largest number first:
COc1ccc(Nc2ncnc3[nH]cnc23)cc1
1: [1] | [5]
0: [2] | [10] | [7]

Oc1ccc(CN2CCc3ccccc3C2)cc1
0: [2] | [3] | [10] | [4] | [5] | [6] | [7] | [8] | [9]

NC(=O)CN1CCN(C(=O)c2ccco2)CC1
0: [2] | [3] | [10] | [4] | [5] | [6] | [7] | [8] | [9]

CCc1nc(-c2ccc(Cl)cc2)no1
0: [1] | [3] | [10] | [4] | [5] | [6] | [7] | [8] | [9]

(cont.)

c1ccc(NCC2CCNC2)nc1 (configuration not stated)
1: [1] | [7]

O=C(Nc1ccc2ncccc2c1)c1ccccc1
0: [2] | [10] | [7] | [9]
1: [1] | [5]

COc1ccc(NC(=O)Nc2cccs2)cn1
0: [1] | [3] | [10] | [4] | [5] | [6] | [8] | [9]

CCN(CC)c1cccc(O)c1
0: [1] | [2] | [4] | [5] | [6] | [7] | [8] | [9]

CN(C)C(=O)OCCn1ccnc1
0: [1] | [3] | [10] | [5] | [6] | [7] | [8] | [9]

O=C(Nc1cccnc1)c1cnn2cccnc12
1: [1] | [5]
0: [3] | [10] | [4] | [6] | [8] | [9]

Cn1nnc(NC(=O)c2ccc(Cl)cc2)n1
0: [1] | [2] | [10] | [5] | [6] | [7] | [8] | [9]

c1csc(-c2nnc[nH]2)n1
0: [1] | [3] | [4] | [5] | [6] | [8] | [9]

CNC1CCCN(c2cccnn2)C1 (configuration not stated)
0: [1] | [3] | [10] | [4] | [5] | [6] | [8] | [9]

N#Cc1ccc(NC(=O)c2cccs2)cc1
1: [1] | [5]
0: [2] | [10] | [7]

CC(Oc1ccc(-c2ccccc2)cc1)C(=O)O (configuration not stated)
0: [1] | [2] | [10] | [7]

Cc1nccc(N2CCC(N)CC2)n1
1: [1] | [7]
0: [2]

c1cc(-c2ccc3c(c2)OCO3)n[nH]1
1: [1] | [5]
0: [2] | [10] | [7] | [8]

CNC(=O)c1ccccc1NC(=O)c1ccco1
0: [2] | [4]
1: [1] | [5] | [9]

c1csc(CNCc2ccncc2)c1
0: [1] | [2] | [4] | [5] | [6] | [7] | [8] | [9]

COc1ccc(CN)cc1OC
1: [7]
0: [2] | [3] | [10] | [4] | [5] | [6] | [8] | [9]

O=C(Nc1ccc(O)cc1)c1ccc(Cl)cc1
1: [1]
0: [2] | [10] | [7]

CC(=O)c1ccc(NC(=O)CN2CCCC2)cc1
1: [1] | [2] | [5]
0: [10] | [7]

CNCc1cnn(-c2ccccc2)c1
1: [1] | [7]
0: [2] | [10]

CCOc1ccc(C(=O)Nc2ccccc2)cc1
0: [1] | [2] | [10] | [7]

CC(=O)Nc1ccncc1C
0: [1] | [4]

CC(=O)Nc1ccc(N2CCN(C)CC2)cc1
0: [2] | [3] | [10] | [4] | [5] | [6] | [7] | [8] | [9]

Cc1ccc(CNC(=O)C2CCC2)cn1
0: [1] | [3] | [4] | [5] | [7] | [8] | [9]

CCCn1nccc1-c1ccncc1
0: [1] | [3] | [10] | [4] | [5] | [6] | [8] | [9]

OCc1cn(-c2ccc(Cl)cc2)nn1
0: [1] | [3] | [10] | [4] | [6] | [7] | [8] | [9]

Cl.NCc1cc(-c2ccccc2)no1
0: [2] | [10] | [7]
1: [1]

Cc1cccc(NC(=O)Nc2nc(C)cs2)c1
1: [3] | [4] | [5] | [8]
0: [2] | [10] | [6] | [7]

c1csc(-c2ncc[nH]2)c1
0: [1] | [2] | [4] | [5] | [6] | [8]

CC(CO)N(C)c1ncc(Cl)cn1 (configuration not stated)
0: [1] | [2] | [10] | [7]

NC(=O)c1ccnc(NC2CC=CC2)c1
0: [1] | [3] | [6]
1: [4] | [5]

CNc1nccc(OC)n1
0: [1] | [2] | [4] | [6] | [7]

CCOC(=O)c1cn[nH]c1
0: [1] | [3] | [10] | [4] | [5] | [6] | [8] | [9]
